Test results published in US20140356285A1, “COMPOSITIONS AND METHODS RELATED TO TISSUE TARGETING” (THE BOARD OF REGENTS OF THE UNIVERSITY OF TEXAS SYSTEM, priority 2011, published 2014).
No constants are given. Whether binding was seen depends on the method and setting. Some binding calls cover weakened binding; strength is not graded here.

Amino acid sequences for entries named in this document (tags omitted). Residues count along the entry.
UniProt Q15109, residues 23-342: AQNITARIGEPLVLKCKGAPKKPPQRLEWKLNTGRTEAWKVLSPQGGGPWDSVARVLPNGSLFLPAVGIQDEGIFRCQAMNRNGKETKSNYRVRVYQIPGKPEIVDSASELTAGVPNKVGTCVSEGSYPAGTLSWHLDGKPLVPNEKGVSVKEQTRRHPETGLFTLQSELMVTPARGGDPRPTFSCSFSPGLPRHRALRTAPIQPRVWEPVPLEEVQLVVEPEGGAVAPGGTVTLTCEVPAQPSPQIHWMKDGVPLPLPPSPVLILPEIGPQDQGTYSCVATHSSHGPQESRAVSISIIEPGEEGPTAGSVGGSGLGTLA

Experiments:
[1] = biological target: T1, human leukocyte proteinase-3 (PR-3) (human, UniProt P24158 28-248); experiment: ELISA on immobilized PR-3, RAGE-Fc titrated
T1 construct: In the ELISAs the PR-3 was bought (Sigma); also called active PR-3; endogenous PR-3
T1 chain: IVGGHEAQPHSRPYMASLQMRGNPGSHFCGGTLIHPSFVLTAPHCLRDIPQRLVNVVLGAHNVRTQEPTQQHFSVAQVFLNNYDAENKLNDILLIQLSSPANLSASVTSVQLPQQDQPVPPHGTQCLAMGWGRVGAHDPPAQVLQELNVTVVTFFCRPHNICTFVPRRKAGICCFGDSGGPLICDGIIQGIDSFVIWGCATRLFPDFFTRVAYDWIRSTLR

[2] = biological target: T1, human leukocyte proteinase-3 (PR-3); experiment: ELISA on immobilized PR-3

- binding [1]: binds
- binding [2]: binds
Substance: RAGE-Fc (from UniProt Q15109 23-342) (Fc fusion)
